Laboratory results taken from publication PMC10381309, “Repurposing Benzimidazoles against Causative Agents of Chromoblastomycosis: Albendazole Has Superior In Vitro Activity Than Mebendazole and Thiabendazole” (Journal of Fungi, 2023).

Tested on: Fonsecaea pedrosoi (CFP 00791)
Assay: NIH Clinical Collection screening for antifungal activity (growth inhibition, OD 530 nm)
Format: cell-based
Details: CFP00791 Fonsecaea pedrosoi isolate, 72–96 h
Experimental: These substances are part of the NIH Roadmap Molecular Libraries Screening Centers Network screening library, a collection of chemically diverse substances in Phase I-III clinical trials. Each substance was initially diluted to 1 mM in DMSO and stored at −20 °C until use. […] The final DMSO concentration corresponded to 0.5% v/v. The inoculum was prepared according to the protocol for filamentous fungi proposed by the European Committee on Antimicrobial Susceptibility Testing—EUCAST, with minor modifications. […] After growth, conidia were suspended in 3 mL of sterile distilled water with 0.1% Tween 20, vortexed, and the concentration adjusted to the 0.5 McFarland scale. The suspension was then diluted 1:10 in order to obtain a final working inoculum at 2–5 × 10^5 CFU/mL. Next, 100 µL of the inoculum was added to each well and the plates incubated at 35 °C for 72–96 h. Negative and positive controls consisted of culture medium alone and drug-free culture medium with the fungal inoculum previously described, respectively. Plates were read using a microplate reader (Epoch, Biotek, Wenusky, VT, USA) with a 530 nm filter to obtain the optical density. All plates were also visually read to confirm the equipment data. […]

Q: How did the inhibition at 10 µM turn out when Clc1ccc(CO/N=C(\Cn2ccnc2)c2ccc(Cl)cc2Cl)c(Cl)c1 [Oxiconazole (nitrate), Oxiconazole] was run?
A: Its inhibition at 10 µM is 91%.
